Results taken from the supplement of paper PMC10849652.
This is one part of the list.

Amino acid sequences for entries named in this document (tags omitted). A change or cut given only in a name is not applied to a line headed by its entry.
UniProt Q9BTE7: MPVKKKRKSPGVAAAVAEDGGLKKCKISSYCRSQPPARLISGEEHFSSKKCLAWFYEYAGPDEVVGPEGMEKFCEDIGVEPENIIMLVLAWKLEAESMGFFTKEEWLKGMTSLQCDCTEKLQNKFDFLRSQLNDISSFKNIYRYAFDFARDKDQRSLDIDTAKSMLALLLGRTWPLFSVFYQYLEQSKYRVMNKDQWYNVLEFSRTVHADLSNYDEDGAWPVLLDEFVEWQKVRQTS
UniProt Q7Z401: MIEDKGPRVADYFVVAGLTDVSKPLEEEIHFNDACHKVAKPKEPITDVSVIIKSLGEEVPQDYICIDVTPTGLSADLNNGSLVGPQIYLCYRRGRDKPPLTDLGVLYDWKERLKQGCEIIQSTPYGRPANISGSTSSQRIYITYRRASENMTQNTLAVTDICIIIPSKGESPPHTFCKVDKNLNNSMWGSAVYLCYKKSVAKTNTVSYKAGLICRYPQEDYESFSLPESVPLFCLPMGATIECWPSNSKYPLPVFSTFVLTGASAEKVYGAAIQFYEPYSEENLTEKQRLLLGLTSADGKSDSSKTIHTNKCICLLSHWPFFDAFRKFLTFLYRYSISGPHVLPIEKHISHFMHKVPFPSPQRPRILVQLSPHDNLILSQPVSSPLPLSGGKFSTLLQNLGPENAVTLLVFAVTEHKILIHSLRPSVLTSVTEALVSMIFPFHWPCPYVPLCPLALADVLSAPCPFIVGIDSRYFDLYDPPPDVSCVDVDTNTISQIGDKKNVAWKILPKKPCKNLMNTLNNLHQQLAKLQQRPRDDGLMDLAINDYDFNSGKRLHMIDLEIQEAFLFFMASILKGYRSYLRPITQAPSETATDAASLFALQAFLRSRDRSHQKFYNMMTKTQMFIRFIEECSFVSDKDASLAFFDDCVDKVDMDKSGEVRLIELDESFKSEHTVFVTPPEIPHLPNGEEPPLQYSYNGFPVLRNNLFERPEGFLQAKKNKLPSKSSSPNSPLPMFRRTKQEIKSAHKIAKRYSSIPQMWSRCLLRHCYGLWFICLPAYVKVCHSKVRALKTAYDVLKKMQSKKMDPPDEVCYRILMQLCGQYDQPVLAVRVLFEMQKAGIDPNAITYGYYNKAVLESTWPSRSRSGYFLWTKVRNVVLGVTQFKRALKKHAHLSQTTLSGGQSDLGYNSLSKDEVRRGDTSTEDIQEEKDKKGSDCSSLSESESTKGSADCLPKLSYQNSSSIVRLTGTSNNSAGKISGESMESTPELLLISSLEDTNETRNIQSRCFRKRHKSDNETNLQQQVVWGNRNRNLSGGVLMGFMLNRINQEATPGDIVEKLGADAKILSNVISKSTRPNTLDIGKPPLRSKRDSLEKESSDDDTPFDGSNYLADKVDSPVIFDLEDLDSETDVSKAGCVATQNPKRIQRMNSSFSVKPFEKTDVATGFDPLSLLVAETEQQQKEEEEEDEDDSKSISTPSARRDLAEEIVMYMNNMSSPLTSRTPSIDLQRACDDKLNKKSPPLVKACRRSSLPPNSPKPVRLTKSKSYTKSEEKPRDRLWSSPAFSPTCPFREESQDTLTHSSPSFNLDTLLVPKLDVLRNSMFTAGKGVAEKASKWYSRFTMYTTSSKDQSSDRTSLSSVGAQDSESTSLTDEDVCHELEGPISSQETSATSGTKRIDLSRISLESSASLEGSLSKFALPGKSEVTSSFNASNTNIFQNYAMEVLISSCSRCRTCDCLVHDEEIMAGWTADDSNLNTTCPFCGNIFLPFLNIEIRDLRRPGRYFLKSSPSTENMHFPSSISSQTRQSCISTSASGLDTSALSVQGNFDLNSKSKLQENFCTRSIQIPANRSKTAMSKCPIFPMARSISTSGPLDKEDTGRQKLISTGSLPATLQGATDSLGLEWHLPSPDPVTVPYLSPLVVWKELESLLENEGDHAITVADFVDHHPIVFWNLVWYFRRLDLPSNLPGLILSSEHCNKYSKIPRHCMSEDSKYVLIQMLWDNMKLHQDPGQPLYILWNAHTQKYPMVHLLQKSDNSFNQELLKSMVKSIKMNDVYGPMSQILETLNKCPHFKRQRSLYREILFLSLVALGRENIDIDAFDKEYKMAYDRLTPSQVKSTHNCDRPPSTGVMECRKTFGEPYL
UniProt P35659: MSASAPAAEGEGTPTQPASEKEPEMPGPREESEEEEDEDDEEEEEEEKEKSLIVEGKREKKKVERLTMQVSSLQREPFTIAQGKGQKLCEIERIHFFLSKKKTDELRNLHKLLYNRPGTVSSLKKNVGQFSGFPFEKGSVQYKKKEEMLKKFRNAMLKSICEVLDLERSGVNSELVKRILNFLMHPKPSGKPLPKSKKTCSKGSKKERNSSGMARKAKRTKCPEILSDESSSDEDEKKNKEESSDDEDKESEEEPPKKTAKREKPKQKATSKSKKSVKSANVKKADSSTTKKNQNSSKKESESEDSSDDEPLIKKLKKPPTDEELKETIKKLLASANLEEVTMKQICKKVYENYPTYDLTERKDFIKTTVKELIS
UniProt O75935, whole entry, looked up: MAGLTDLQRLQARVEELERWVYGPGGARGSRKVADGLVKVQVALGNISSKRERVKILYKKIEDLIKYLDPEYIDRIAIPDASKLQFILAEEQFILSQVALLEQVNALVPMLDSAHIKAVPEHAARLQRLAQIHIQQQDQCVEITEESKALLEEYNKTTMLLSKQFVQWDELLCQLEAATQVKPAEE
UniProt Q14118: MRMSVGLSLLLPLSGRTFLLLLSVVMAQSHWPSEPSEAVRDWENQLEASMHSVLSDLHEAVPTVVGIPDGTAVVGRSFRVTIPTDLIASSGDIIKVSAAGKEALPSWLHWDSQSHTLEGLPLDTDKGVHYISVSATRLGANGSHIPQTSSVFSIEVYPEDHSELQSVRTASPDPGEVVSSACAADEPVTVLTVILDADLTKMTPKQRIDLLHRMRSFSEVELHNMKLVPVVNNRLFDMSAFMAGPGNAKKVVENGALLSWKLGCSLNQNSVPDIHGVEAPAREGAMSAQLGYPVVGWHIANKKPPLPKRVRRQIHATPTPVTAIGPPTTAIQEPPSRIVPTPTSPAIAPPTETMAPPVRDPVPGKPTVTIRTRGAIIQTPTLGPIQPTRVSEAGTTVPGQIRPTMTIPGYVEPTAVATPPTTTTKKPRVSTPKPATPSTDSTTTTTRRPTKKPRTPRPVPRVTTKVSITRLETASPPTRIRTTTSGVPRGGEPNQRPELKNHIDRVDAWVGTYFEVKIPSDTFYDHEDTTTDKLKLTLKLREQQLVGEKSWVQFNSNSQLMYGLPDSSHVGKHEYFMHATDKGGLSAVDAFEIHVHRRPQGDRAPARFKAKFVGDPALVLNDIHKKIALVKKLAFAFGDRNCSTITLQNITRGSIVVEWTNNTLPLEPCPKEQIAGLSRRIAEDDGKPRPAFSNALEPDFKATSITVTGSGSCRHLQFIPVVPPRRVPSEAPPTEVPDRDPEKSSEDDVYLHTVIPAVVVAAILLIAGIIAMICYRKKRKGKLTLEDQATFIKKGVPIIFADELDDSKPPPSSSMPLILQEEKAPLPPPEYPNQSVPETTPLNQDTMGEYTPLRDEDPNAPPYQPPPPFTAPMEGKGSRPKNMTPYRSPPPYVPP
UniProt P30046: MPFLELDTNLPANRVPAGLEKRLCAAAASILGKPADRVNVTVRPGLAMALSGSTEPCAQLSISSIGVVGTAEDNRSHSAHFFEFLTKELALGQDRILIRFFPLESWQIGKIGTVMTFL
UniProt Q5T1V6: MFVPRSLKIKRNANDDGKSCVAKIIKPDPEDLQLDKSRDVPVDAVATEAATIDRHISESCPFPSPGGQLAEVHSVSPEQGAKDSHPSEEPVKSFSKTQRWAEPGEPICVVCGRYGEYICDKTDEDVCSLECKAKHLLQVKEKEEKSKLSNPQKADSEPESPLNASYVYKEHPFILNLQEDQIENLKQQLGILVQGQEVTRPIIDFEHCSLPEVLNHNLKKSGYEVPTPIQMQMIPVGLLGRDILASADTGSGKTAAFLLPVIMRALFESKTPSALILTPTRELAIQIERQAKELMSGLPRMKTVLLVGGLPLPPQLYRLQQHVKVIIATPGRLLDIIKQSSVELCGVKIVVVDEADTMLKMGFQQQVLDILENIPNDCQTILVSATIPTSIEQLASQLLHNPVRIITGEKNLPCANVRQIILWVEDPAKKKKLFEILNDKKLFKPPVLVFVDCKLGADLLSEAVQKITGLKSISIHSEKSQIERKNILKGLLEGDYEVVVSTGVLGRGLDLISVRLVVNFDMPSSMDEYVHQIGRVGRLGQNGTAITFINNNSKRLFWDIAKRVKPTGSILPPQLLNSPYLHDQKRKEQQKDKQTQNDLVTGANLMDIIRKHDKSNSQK
UniProt Q6P3S1: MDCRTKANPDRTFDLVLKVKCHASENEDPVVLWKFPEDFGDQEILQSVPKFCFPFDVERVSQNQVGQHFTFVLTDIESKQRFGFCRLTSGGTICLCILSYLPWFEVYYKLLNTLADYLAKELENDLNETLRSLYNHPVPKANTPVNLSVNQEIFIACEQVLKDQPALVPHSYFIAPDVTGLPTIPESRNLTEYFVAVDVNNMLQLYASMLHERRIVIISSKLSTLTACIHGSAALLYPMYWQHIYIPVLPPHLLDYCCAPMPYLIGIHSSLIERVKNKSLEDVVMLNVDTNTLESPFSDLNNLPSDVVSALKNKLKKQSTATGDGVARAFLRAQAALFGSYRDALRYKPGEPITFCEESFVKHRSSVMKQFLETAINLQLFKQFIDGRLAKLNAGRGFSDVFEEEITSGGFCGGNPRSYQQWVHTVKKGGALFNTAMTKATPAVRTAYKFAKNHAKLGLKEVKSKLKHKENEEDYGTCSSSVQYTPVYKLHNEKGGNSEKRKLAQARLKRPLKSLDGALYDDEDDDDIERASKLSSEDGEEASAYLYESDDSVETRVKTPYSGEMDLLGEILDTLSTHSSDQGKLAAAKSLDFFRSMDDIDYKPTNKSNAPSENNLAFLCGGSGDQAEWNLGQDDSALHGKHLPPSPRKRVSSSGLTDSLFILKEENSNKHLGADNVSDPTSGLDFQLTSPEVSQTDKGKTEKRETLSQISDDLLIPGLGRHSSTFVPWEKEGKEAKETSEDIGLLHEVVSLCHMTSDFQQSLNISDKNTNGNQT
UniProt Q13561, whole entry, looked up: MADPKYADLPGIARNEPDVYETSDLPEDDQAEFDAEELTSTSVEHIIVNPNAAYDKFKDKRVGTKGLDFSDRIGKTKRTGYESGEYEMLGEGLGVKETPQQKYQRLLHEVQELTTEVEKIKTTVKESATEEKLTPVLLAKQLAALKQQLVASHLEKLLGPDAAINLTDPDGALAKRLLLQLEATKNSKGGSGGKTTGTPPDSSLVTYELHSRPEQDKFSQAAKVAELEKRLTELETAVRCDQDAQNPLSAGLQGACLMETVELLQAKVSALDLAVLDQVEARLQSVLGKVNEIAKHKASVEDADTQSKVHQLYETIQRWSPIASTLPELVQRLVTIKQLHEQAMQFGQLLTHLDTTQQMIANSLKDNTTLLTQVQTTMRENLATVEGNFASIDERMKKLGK
UniProt Q8IWF6: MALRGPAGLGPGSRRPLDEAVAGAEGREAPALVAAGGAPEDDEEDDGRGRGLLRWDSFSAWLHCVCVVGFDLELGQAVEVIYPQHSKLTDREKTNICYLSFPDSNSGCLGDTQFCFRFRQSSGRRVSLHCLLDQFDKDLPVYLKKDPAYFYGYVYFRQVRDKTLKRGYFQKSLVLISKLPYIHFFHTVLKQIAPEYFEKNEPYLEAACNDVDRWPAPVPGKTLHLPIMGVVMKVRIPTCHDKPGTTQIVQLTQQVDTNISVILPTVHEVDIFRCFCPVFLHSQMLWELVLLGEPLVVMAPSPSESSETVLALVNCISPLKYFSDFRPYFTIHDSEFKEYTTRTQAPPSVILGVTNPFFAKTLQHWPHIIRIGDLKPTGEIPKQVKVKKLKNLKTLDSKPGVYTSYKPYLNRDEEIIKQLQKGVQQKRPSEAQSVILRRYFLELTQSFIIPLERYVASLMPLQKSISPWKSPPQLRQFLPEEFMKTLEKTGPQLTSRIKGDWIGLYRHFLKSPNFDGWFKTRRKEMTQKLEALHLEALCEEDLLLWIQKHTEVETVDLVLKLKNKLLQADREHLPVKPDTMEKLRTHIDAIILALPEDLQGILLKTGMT
UniProt Q8NA75: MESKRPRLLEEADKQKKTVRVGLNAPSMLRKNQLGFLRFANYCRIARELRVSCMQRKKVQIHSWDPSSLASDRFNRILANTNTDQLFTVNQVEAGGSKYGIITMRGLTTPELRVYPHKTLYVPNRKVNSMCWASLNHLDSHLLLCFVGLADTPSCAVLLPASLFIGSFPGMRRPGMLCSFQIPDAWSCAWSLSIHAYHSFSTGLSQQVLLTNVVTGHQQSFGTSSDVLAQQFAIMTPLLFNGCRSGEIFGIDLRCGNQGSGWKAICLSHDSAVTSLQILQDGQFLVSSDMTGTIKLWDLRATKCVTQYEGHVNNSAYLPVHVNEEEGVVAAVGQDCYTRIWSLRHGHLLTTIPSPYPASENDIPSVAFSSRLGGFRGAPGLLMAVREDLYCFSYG

Each target was assayed with NC(=O)Nc1cc(-c2cccc(F)c2)sc1C(=O)N[C@H]1CCCNC1 (assay: log2 fold change, soluble protein after heating vs DMSO (PISA); higher = thermal stabilisation; K562 lysate, 10 uM; active = over 0.2 and 3.5 SD of the protein, either way, in both replicates (recomputed)).
In short: (§1)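 Log-two fold change in thermal stability relative to solvent controls is reported from duplicates. For each sample, crude K562 extract from dounce-homogenised pellets in PBS pH 7.4 with 1 mM MgCl2, at 1 mg/mL protein, was treated with 10 μM compound for 30 min. Aliquots heated for 3 min across 48°C-58°C were pooled, brought to 0.5% NP-40 at 4°C and cleared at 21,000xg for 90 min. The supernatant was quantified by TMTpro 16plex LC-MS/MS with channel sums equalised.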

log2 fold change, inactive:
DCUN1D5 (UniProt Q9BTE7) 0.058
DENND4A isoform 2 (UniProt Q7Z401) 0.058
DEK (UniProt P35659) -0.025
DCTN3 (UniProt O75935) -0.031
DAG1 (UniProt Q14118) 0.068
DENND4C (UniProt Q5VZ89) 0.013
DDT (UniProt P30046) -0.018
DDX59 (UniProt Q5T1V6) -0.009
DENND1B (UniProt Q6P3S1) 0.211

Each target was assayed with NC(=O)c1cnc(N[C@@H]2CCCC[C@@H]2N)nc1Nc1cccc(-n2nccn2)c1 in the same assay as above.
In short: as §1

log2 fold change, inactive:
CYP24A1 (UniProt Q07973) 0.068
DAGLB (UniProt Q8NCG7) 0.04
DDX3X (UniProt O00571) 0.073
DDB1 (UniProt Q16531) -0.025
DEF6 (UniProt Q9H4E7) 0.044
DDAH2 (UniProt O95865) -0.009
DECR2 (UniProt Q9NUI1) 0.076
DDX18 (UniProt Q9NVP1) -0.019
DCTN4 (UniProt Q9UJW0) 0.015
DCTD isoform 2 (UniProt P32321) -0.004
DDX56 (UniProt Q9NY93) 0.005
DDX17 (UniProt Q92841) 0.006
DCXR (UniProt Q7Z4W1) -0.022
DCTN2 isoform 3 (UniProt Q13561) -0.007
DCP2 (UniProt Q8IU60) 0.03
DCAF11 (UniProt Q8TEB1) -0.01
DENND6A (UniProt Q8IWF6) -0.032
DCAF13 (UniProt Q9NV06) 0.032
DCAF15 (UniProt Q66K64) -0.055
DCAF4L2 (UniProt Q8NA75) -0.07
DCTN2 (UniProt Q13561) -0.025
DAZAP1 (UniProt Q96EP5) 0.01
DFFA isoform 2 (UniProt O00273) -0.253
DCUN1D5 (UniProt Q9BTE7) 0.031
DENND4A isoform 2 (UniProt Q7Z401) 0.042
DEK (UniProt P35659) -0.009
DCTN3 (UniProt O75935) 0.025
DAG1 (UniProt Q14118) 0.016
DENND4C (UniProt Q5VZ89) 0.004
DDT (UniProt P30046) -0.07
DDX59 (UniProt Q5T1V6) -0.011
DENND1B (UniProt Q6P3S1) 0.2

These targets were tested with NC1(c2ccc(-c3nc4ccn5c(=O)[nH]nc5c4cc3-c3ccccc3)cc2)CCC1 in the same assay as above.
In short: as §1

log2 fold change, inactive:
CYP24A1 (UniProt Q07973) -0.161
DAGLB (UniProt Q8NCG7) 0.034
DDX3X (UniProt O00571) -0.053
DDB1 (UniProt Q16531) -0.003
DEF6 (UniProt Q9H4E7) -0.01
DDAH2 (UniProt O95865) 0.005
DECR2 (UniProt Q9NUI1) -0.014
DDX18 (UniProt Q9NVP1) 0
DCTN4 (UniProt Q9UJW0) -0.002
DCTD isoform 2 (UniProt P32321) 0.028
DDX56 (UniProt Q9NY93) -0.003
DDX17 (UniProt Q92841) 0.025
DCXR (UniProt Q7Z4W1) 0.017
DCTN2 isoform 3 (UniProt Q13561) -0.004
DCP2 (UniProt Q8IU60) 0.024
DCAF11 (UniProt Q8TEB1) -0.017
DENND6A (UniProt Q8IWF6) -0.011
DCAF13 (UniProt Q9NV06) -0.075
DCAF15 (UniProt Q66K64) -0.039
DCAF4L2 (UniProt Q8NA75) 0.061
DCTN2 (UniProt Q13561) -0.145
DAZAP1 (UniProt Q96EP5) -0.008
DFFA isoform 2 (UniProt O00273) -0.122
DCUN1D5 (UniProt Q9BTE7) 0.006
DENND4A isoform 2 (UniProt Q7Z401) 0.008
DEK (UniProt P35659) -0.007
DCTN3 (UniProt O75935) 0.013
DAG1 (UniProt Q14118) -0.034
DENND4C (UniProt Q5VZ89) 0.025
DDT (UniProt P30046) 0.031
DDX59 (UniProt Q5T1V6) 0.054
DENND1B (UniProt Q6P3S1) 0.209
